Measured values: PMC7675183
No constants are given. Whether binding was seen depends on the method and setting. For some assays here: Binding seen in cells or lysates may run through a third protein. Some binding calls cover weakened binding; strength is not graded here.

Protein sequences, listed by entry. Tags and fused reporters are not part of them.
UniProt Q80Y84: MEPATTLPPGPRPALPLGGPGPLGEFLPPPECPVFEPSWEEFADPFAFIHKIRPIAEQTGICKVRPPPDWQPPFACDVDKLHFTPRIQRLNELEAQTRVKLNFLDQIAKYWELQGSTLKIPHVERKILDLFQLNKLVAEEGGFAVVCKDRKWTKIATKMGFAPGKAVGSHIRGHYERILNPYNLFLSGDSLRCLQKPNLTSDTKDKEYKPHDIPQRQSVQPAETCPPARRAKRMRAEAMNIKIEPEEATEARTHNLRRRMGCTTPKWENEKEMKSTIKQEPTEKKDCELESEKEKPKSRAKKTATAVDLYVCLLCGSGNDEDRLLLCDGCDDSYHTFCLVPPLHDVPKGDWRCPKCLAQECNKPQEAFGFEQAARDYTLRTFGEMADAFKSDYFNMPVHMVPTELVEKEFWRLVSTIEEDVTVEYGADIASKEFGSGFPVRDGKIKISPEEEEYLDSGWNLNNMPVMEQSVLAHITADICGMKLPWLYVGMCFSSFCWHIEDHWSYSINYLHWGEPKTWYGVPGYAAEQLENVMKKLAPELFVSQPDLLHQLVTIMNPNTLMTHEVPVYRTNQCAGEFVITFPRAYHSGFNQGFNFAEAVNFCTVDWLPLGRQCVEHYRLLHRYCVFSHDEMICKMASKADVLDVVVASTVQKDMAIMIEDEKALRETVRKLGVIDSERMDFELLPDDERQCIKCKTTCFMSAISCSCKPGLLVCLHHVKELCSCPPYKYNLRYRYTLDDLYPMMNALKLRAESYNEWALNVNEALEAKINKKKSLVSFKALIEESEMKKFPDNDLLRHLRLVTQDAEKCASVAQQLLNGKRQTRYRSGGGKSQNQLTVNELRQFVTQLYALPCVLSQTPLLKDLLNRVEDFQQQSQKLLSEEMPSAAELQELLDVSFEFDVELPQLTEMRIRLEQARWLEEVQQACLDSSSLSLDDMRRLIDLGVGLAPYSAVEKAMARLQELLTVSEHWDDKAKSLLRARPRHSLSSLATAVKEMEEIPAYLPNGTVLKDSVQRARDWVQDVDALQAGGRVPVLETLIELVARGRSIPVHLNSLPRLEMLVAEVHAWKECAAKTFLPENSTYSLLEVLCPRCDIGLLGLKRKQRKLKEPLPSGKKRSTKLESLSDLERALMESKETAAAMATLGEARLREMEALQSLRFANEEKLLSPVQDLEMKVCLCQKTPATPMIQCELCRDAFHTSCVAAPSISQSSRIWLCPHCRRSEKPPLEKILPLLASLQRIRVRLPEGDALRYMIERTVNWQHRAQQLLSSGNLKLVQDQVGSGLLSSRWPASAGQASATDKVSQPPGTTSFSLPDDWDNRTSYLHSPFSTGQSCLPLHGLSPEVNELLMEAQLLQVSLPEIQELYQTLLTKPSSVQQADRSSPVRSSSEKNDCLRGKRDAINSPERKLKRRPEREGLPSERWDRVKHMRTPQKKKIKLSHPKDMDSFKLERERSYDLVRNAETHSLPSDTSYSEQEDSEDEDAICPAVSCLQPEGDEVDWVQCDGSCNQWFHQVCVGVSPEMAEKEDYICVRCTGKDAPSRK

Tests used:
[1] = molecular target: KDM5B (mouse (endogenous in BMDMs and BMDCs)) (UniProt Q80Y84); assay: co-IP; endogenous proteins; extracts of BMDMs and BMDCs treated with LPS for the indicated time points; immunoblot with the indicated antibodies
[2] = molecular target: KDM5B (mouse (endogenous in BMDMs and BMDCs)) (UniProt Q80Y84); assay: sequential ChIP (re-ChIP); fixed BMDMs after LPS stimulation for 2 h; first-round ChIP against USP38, KDM5B or IgG, eluted samples re-ChIPed with the second antibodies; PCR of the Il6 promoter

B1: USP38 (enzyme, UniProt Q8BW70 1-1042)
chain: MDKILEGLVSSSHPLPLKRMIVRKVVEFAEHWLDEAQCEAMFDLTTRLILEGQDPFQRQVGHQVLEAYARYHRPEFESFFNKTFVLGLLQQGYHSVDRKDVAILDYIHNGLKLIMSCPSVLDLFSLLQVEVLRMVCERPEPVLCARLSDLLTDFVQCVPKGKLSVTFCQQLVRTIGHFQCVSTQEKELREYVSQVTKVSTLLQNIWKAEPSTLLPSLQEVFASISSTDASFEPSVALASLVQHIPLQMITVLIRSLTTDPNVKDASMTQALCRMIDWLSWPLAQHVDTWVIALLKGLAAVQKFTILIDVTLLKIELVFNRLWFPLVRPGALAVLSHMLLSFQHSPEAFHVIVPHIVNLVHSFRSDGLPSSTAFLVQLTELVHCMMYHYSGFPDLYEPILEAVKDFPKPSEEKIKLILNQSAWTSQSNALASCLSRLSGKSETGKTGLINLGNTCYMNSVLQALFMATEFRRQVLSLNLNGCNSLMKKLQHLFAFLAHTQREAYAPRIFFEASRPPWFTPRSQQDCSEYLRFLLDRLHEEEKILRVQSSHKPSEGLDCAETCLQEVTSKVAVPTESPGTGDSEKTLIEKMFGGKLRTHICCLNCGSTSHKVEAFTDLSLAFCPSPSVEDLSFQDTASLPSAQDDGLMQTSVADPEEEPVVYNPATAAFVCDSVVNQRVLGSPPVEFHCAESSSVPEESAKILISKDVPQNPGGESTTSVTDLLNYFLAPEVLTGENQYYCESCASLQNAEKTMQITEEPEYLILTLLRFSYDQKYHVRRKILDNVSLPLVLELPVKRTASFSSLSQSWSVDVDFTDINENLPKKLKPSGTEEAFCPKLVPYLLSSVVVHSGVSSESGHYYSYARNITGTESSYQMCPQSESLALAPSQSCLLGVESPNTVIEQDLENKEMSQEWFLFNDSRVTFTSFQSVQKITSRFPKDTAYVLLYKKQSRANGIDSDNPASGVWANGDPPLQKELMDAITKDNKLYLQEQELNARARALQAASASCSFRPNGFDDNDPPGSCGPTGGGGGGGFNTVGRLVF
binding [1]: binds
binding [2]: binds
